Measurements: PubChem BioAssay AID330 (DTP/NCI, 2004)
The list does not hold the whole screen: it is rich in T/C values a quarter to a half above the control, in often repeated tests (any T/C) and in doses without a T/C. Other doses and runs of a compound stand elsewhere. T/C is the treated group as % of the vehicle group. Some entries give survivors of the animals treated and no T/C: the source files T/C as zero there, which appears to mark a toxic dose or a test without result, not a measured value. Some doses without a T/C left all or most animals alive at the check, yet need not have been tolerated: survival well below the control is almost never listed, so the zero probably covers shortened survival too. Counts of survivors are from the toxicity check (mostly the fifth day) where no day follows; animals may have died later. Schedules are NCI's codes, taken here to give the interval after Q, in days (D) or hours (H), and the number of doses after X. Some entries were tested several times; their values stand side by side, smallest first. For survival time, this PubChem deposit counts one and a half times the control or more as active, and values a quarter to a half above the control carry no call in these data; other NCI protocols may use other cut-offs. Some T/C values carry the count of animals alive at the toxicity check (mostly the fifth day); without a count, all were alive then.

System: P388 leukemia ip, CD2F1 mice, survival T/C
Experiment: NCI In Vivo Anticancer Drug Screen. Data for tumor model P388 Leukemia (intraperitoneal) in CD2F1 (CDF1) mice
Details: T/C endpoint: median survival time, higher T/C = longer survival
[1] = dose: 100.0 mg/kg/injection, schedule: Q01DX009 (ip), vehicle: saline
[2] = dose: 200.0 mg/kg/injection, schedule: Q01DX009 (ip), vehicle: saline
[3] = dose: 200.0 mg/kg/injection, schedule: Q04DX003 (ip), vehicle: saline with Tween-80
[4] = dose: 400.0 mg/kg/injection, schedule: Q04DX003 (ip), vehicle: Klucel (hydroxypropylcellulose) (HPC)
[5] = dose: 100.0 mg/kg/injection, schedule: Q01DX005 (ip), vehicle: saline
[6] = dose: 200.0 mg/kg/injection, schedule: Q01DX005 (ip), vehicle: saline
[7] = dose: 200.0 mg/kg/injection, schedule: Q01DX005 (ip), vehicle: Klucel (hydroxypropylcellulose) (HPC)
[8] = dose: 50.0 mg/kg/injection, schedule: Q01DX009 (ip), vehicle: water
[9] = dose: 6.25 mg/kg/injection, schedule: Q01DX005 (ip), vehicle: water
[10] = dose: 12.5 mg/kg/injection, schedule: Q01DX005 (ip), vehicle: water
[11] = dose: 25.0 mg/kg/injection, schedule: Q01DX005 (ip), vehicle: water
[12] = dose: 50.0 mg/kg/injection, schedule: Q01DX005 (ip), vehicle: water

`O=NN(CCCl)C(=O)OCC(Cl)(Cl)Cl` was tested. Which T/C (dose: 12.5 mg/kg/injection, schedule: Q01DX001 (ip), vehicle: saline with Tween-80) did it give?
The T/C was 127 % of control.

And the survivor count (dose: 100.0 mg/kg/injection, schedule: Q01DX001 (ip), vehicle: saline with Tween-80)?
Its survivor count is 4 of 5 and 5 of 5.

What about the survivor count (dose: 150.0 mg/kg/injection, schedule: Q01DX001 (ip), vehicle: saline with Tween-80) of the same molecule?
Its survivor count is 5 of 5.

Which T/C (dose: 25.0 mg/kg/injection, schedule: Q01DX009 (ip), vehicle: saline) does the source give for `Cc1c2cc(Cl)c3ccccc3c2c[n+]2ccccc12` here?
Its T/C is 125 % of control.

What about the survivor count (dose: 50.0 mg/kg/injection, schedule: Q01DX009 (ip), vehicle: saline) of the same molecule?
Its survivor count is 6 of 6.

What about the survivor count [1] of the same molecule?
The survivor count was 6 of 6.

What about the survivor count [2] of the same molecule?
The survivor count was 3 of 6.

And the T/C [3]?
Its T/C is 127 % of control.

And the survivor count (dose: 400.0 mg/kg/injection, schedule: Q01DX009 (ip), vehicle: saline)?
The survivor count was 6 of 6.

How did the survivor count (dose: 100.0 mg/kg/injection, schedule: Q04DX002 (ip), vehicle: Klucel (hydroxypropylcellulose) (HPC)) turn out when `[Cu+2].[NH-]CCC[N-]CCCC[N-]CCC[NH-].[O-][Cl+3]([O-])([O-])O` was run?
The survivor count was 0 of 6.

What about the survivor count (dose: 200.0 mg/kg/injection, schedule: Q04DX002 (ip), vehicle: Klucel (hydroxypropylcellulose) (HPC)) of the same molecule?
Its survivor count is 0 of 6.

What about the survivor count (dose: 400.0 mg/kg/injection, schedule: Q04DX002 (ip), vehicle: Klucel (hydroxypropylcellulose) (HPC)) of the same molecule?
The survivor count was 0 of 6.

What does the source list for `C#CC(OC(=O)NC1CCCCC1)(c1ccccc1)c1ccccc1`?
T/C (dose: 50.0 mg/kg/injection, schedule: Q04DX003 (ip), vehicle: saline with Tween-80): 135 and 136 % of control; survivor count (dose: 75.0 mg/kg/injection, schedule: Q01DX009 (ip), vehicle: saline with Tween-80): 6 of 6; T/C (dose: 100.0 mg/kg/injection, schedule: Q04DX003 (ip), vehicle: saline with Tween-80): 141 % of control; survivor count [3]: 6 of 6; survivor count (dose: 400.0 mg/kg/injection, schedule: Q04DX003 (ip), vehicle: saline with Tween-80): 0 of 6

Which T/C (dose: 12.5 mg/kg/injection, schedule: Q01DX009 (ip), vehicle: saline with Tween-80) does the source give for `COc1ccc2nc3cc(Cl)ccc3c(NCCNCCNCCNc3c4ccc(Cl)cc4nc4ccc(OC)cc34)c2c1` here?
Its T/C is 137 % of control.

What about the T/C (dose: 25.0 mg/kg/injection, schedule: Q01DX009 (ip), vehicle: saline with Tween-80) of the same molecule?
The T/C was 137 % of control.

And the survivor count (dose: 100.0 mg/kg/injection, schedule: Q01DX009 (ip), vehicle: saline with Tween-80)?
The survivor count was 4 of 6.

How did the T/C (dose: 240.0 mg/kg/injection, schedule: Q01DX005 (ip), vehicle: saline with Tween-80) turn out when `CCOC(=O)C(Br)CN1C(=O)c2ccccc2C1=O` (stereo not drawn) was run?
Its T/C is 132 % of control.

For `Clc1nn2ccnc2c2cccnc12`, which survivor count (dose: 50.0 mg/kg/injection, schedule: Q04DX003 (ip), vehicle: Klucel (hydroxypropylcellulose) (HPC)) is on record?
Its survivor count is 1 of 6.

And the survivor count (dose: 100.0 mg/kg/injection, schedule: Q04DX003 (ip), vehicle: Klucel (hydroxypropylcellulose) (HPC))?
The survivor count was 0 of 6.

And the survivor count (dose: 200.0 mg/kg/injection, schedule: Q04DX003 (ip), vehicle: Klucel (hydroxypropylcellulose) (HPC))?
Its survivor count is 0 of 6.

What about the survivor count [4] of the same molecule?
Its survivor count is 0 of 6.

For `COC(=O)C12CN3CC(C)(C1)C(=O)C(C)(C3)C2=O` (stereo not drawn), which survivor count (dose: 120.0 mg/kg/injection, schedule: Q01DX005 (ip), vehicle: Klucel (hydroxypropylcellulose) (HPC)) is on record?
The survivor count was 6 of 6.

With `CCC1OC(O)C=CC1=O` (stereo not drawn) as the molecule, how does the survivor count (dose: 6.0 mg/kg/injection, schedule: Q01DX005 (ip), vehicle: saline) read?
Its survivor count is 2 of 6 and 2 of 5.

And the survivor count (dose: 12.0 mg/kg/injection, schedule: Q01DX005 (ip), vehicle: saline)?
The survivor count was 0 of 6.

And the survivor count (dose: 25.0 mg/kg/injection, schedule: Q01DX005 (ip), vehicle: saline)?
Its survivor count is 0 of 6.

And the survivor count (dose: 50.0 mg/kg/injection, schedule: Q01DX005 (ip), vehicle: saline)?
The survivor count was 0 of 6.

What about the survivor count [5] of the same molecule?
Its survivor count is 0 of 6.

What about the survivor count [6] of the same molecule?
Its survivor count is 0 of 6.

Which survivor count [4] does the source give for `O=C(OCc1ccccc1)c1ccc(=O)oc1` here?
Its survivor count is 3 of 6.

What does the source list for `C#CCOC1CC(C)(O)Cc2cc3c(c(O)c21)C(=O)c1c(O)cc2c(c1C3=O)OC1OC2(C)C(O)C(N(C)C)C1O` (stereo not drawn)?
T/C (dose: 2.5 mg/kg/injection, schedule: Q01DX009 (ip), vehicle: other): 130 % of control; T/C (dose: 5.0 mg/kg/injection, schedule: Q01DX009 (ip), vehicle: other): 137 % of control; T/C (dose: 10.0 mg/kg/injection, schedule: Q01DX009 (ip), vehicle: other): 140 % of control; survivor count (dose: 40.0 mg/kg/injection, schedule: Q01DX009 (ip), vehicle: other): 3 of 6

For `O=C(Oc1c(Cc2ccccc2)c(=O)[nH]c2ccccc12)c1ccccc1`, which survivor count (dose: 240.0 mg/kg/injection, schedule: Q01DX005 (ip), vehicle: Klucel (hydroxypropylcellulose) (HPC)) is on record?
The survivor count was 1 of 6.

Which survivor count [7] does the source give for `CC(C)CC(NC(=O)OCC1c2ccccc2-c2ccccc21)C(=O)O` (stereo not drawn) here?
Its survivor count is 1 of 6.

`COc1cccc2c1C(=O)c1c(O)c3c(c(O)c1C2=O)CC(O)(/C(C)=N/NC(=O)CCCCCCCCC(=O)N/N=C(\C)C1(O)Cc2c(O)c4c(c(O)c2C(OC2CC(N)C(O)C(C)O2)C1)C(=O)c1c(OC)cccc1C4=O)CC3OC1CC(N)C(O)C(C)O1` (stereo not drawn) was tested. Which survivor count [8] did it give?
Its survivor count is 3 of 3.

`CC(C)=CCc1c(C)cc2cc3c(c(O)c2c1O)C(O)=CC(=O)C3(CC=C(C)C)C/C=C(\C)CO` (stereo not drawn) was tested. Which survivor count [7] did it give?
The survivor count was 1 of 6.

With `CCNc1cc(N)[n+](CC)c2n[nH]c(N)c12` as the molecule, how does the survivor count [6] read?
The survivor count was 0 of 6.

What does the source list for `Nc1nc2ncn(O)c2c(=O)[nH]1`?
T/C [9]: 130 % of control; T/C [10]: 130 and 145 % of control; T/C [11]: 126 and 142 % of control; survivor count [12]: 0 of 6 and 5 of 6

How did the survivor count [5] turn out when `N#C[C@H]1O[C@H]1c1ccc[n+]([O-])c1` was run?
Its survivor count is 0 of 6.

And the survivor count [6]?
Its survivor count is 0 of 6.

Which results are given for `C/C(=N\O)C1CCN(Cc2ccccc2)CC1`?
survivor count (dose: 100.0 mg/kg/injection, schedule: Q01DX005 (ip), vehicle: Klucel (hydroxypropylcellulose) (HPC)): 4 of 5; survivor count [7]: 0 of 5

What does the source list for `Nc1n[n+](-c2ccccc2)no1`?
T/C [9]: 108, 112, 113, 114 % of control; T/C (dose: 6.25 mg/kg/injection, schedule: Q01DX009 (ip), vehicle: water): 142 % of control; T/C (dose: 6.25 mg/kg/injection, schedule: Q03HX015 (ip), vehicle: water): 126 and 130 % of control; T/C [10]: 119, 122, 135, 138 % of control; T/C (dose: 12.5 mg/kg/injection, schedule: Q01DX009 (ip), vehicle: saline): 141 % of control; T/C (dose: 12.5 mg/kg/injection, schedule: Q01DX009 (ip), vehicle: water): 137 % of control; T/C (dose: 12.5 mg/kg/injection, schedule: Q03HX015 (ip), vehicle: water): 139 and 147 % of control [4 of 6 alive]; T/C [11]: 142 [5 of 6 alive], 144, 150, 151 % of control; T/C (dose: 25.0 mg/kg/injection, schedule: Q03HX003 (ip), vehicle: water): 127 % of control; T/C [12]: 130 [5 of 6 alive], 153, 168, 180 % of control; T/C [8]: 132 % of control [5 of 6 alive]; survivor count [8]: 5 of 6 and 6 of 6; T/C (dose: 50.0 mg/kg/injection, schedule: Q03HX003 (ip), vehicle: water): 132 % of control; survivor count (dose: 50.0 mg/kg/injection, schedule: Q03HX015 (ip), vehicle: water): 3 of 6; survivor count (dose: 100.0 mg/kg/injection, schedule: Q01DX005 (ip), vehicle: water): 3 of 6 and 5 of 6; survivor count [1]: 3 of 6; survivor count (dose: 100.0 mg/kg/injection, schedule: Q01DX009 (ip), vehicle: water): 0 of 6 and 2 of 6; survivor count (dose: 100.0 mg/kg/injection, schedule: Q03HX003 (ip), vehicle: water): 0 of 6; survivor count (dose: 200.0 mg/kg/injection, schedule: Q01DX001 (ip), vehicle: water): 0 of 6; survivor count (dose: 400.0 mg/kg/injection, schedule: Q01DX001 (ip), vehicle: water): 0 of 6

`CC(=O)Oc1c(C)[nH]ccc1=O` was tested. Which T/C [1] did it give?
Its T/C is 127 and 132 % of control.

What about the T/C [2] of the same molecule?
The T/C was 127 and 141 % of control.

What about the T/C (dose: 800.0 mg/kg/injection, schedule: Q01DX009 (ip), vehicle: saline) of the same molecule?
The T/C was 134 % of control.
